The text below walks through data of patent US9365615B2 (JITSUBO Co., Ltd., priority 2013, dated 2016).

Some peptides are written in HELM: one residue between dots, names in brackets for other building blocks, links after the first $.

The nature of this series: general procedure: solution-phase peptide synthesis; hydrophobic carrier for liquid phase synthesis (alkoxy-substituted benzyl groups Ka, Kb, Kc); HATU/HOAt/DIPEA. The note with it: late stage modification step.

“[C] is Trp-Ser-Gln-Tyr-Leu and [D] is Tyr” gave a step yield of 45.3%.

For the substance “PEPTIDE1{Y.K.W.S.Q.Y.L.[NbuGly].Y}$PEPTIDE1,PEPTIDE1,2:R3-8:R3$$$V2.0”, the step yield (from compound 25) was determined as 52.6%.

In the case of “PEPTIDE1{Y.[Lys_NeAc].W.S.Q.Y.L.[NbuGly].Y}$PEPTIDE1,PEPTIDE1,2:R3-8:R3$$$V2.0”, for the setting “from compound 27”, the step yield came to 59.8%.

“PEPTIDE1{Y.[Lys_NePr].W.S.Q.Y.L.[NbuGly].Y}$PEPTIDE1,PEPTIDE1,2:R3-8:R3$$$V2.0” returned a step yield of 20.7%.

With “PEPTIDE1{[ac].Y.[Lys_NeAc].W.S.Q.Y.L.[NbuGly].Y}$PEPTIDE1,PEPTIDE1,3:R3-9:R3$$$V2.0”, the step yield (from compound 22) turned out to be 37.4%.

Turning to “PEPTIDE1{[ac].Y.K.W.S.Q.Y.L.[NbuGly].Y}$PEPTIDE1,PEPTIDE1,3:R3-9:R3$$$V2.0”, under “from compound 19”, the step yield is 23.4%.
